Data source: PubChem BioAssay AID1259254 (NCATS, 2017)
Here is one part, drawn at random, of about 59,000 reagents. About 1,550 of all reagents (2.6%) were called active. 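G2 share is only a proxy for re-replication; each gene was hit by three separate siRNAs, and active genes were retested.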 The raw values are shown without normalisation. Unmarked entries are inactive. The numbers tell different reagents against one gene apart. The record does not give: the amount of reagent.

- Screen: 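Finding genes that stop cells copying their DNA twice in one cycle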 (primary screen)
- System: human HCT116 colorectal cancer cells
- Reagents: single siRNA against human genes
- Time to read-out: 3 days
- Measurement: 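Imaged Hoechst DNA stain sorts each cell into a cycle phase by DNA amount; per plate, G2 fraction set to 0% for non-targeting and 100% for GMNN siRNA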
- Scale: G2 robust z-score and G2 cells, % of GMNN control: higher = more G2 cells, more excess DNA replication; raw share of cells in G2: higher = larger share of cells with G2 DNA content
- Rule for the call: 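Active siRNAs have a G2 robust z of 5 or more median absolute deviations over the median, which in these data means about 38% or higher of GMNN control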

no.	target	siRNA no.	G2 robust z-score	G2 cells, % of GMNN control	raw share of cells in G2 (%)
1	ID2	1	-0.428	-0.0439	3.44
2	ID2	2	1.93	16.6	12.6
3	ID2	3	1.56	14	8.18
4	EIF4E2	1	0.711	7.97	8.22
5	EIF4E2	2	-1.06	-4.46	2.94
6	EIF4E2	3	-0.602	-1.27	2.77
7	CEBPB	1	1.86	16	10.7
8	CEBPB	2	-1.61	-8.37	1.94
9	CEBPB	3	1.26	11.9	8.18
10	COQ6	1	-0.336	0.603	4.03
11	COQ6	2	-0.93	-3.58	2.92
12	COQ6	3	2.16	18.1	14.2
13	ST7	1	-0.244	1.25	5.69
14	ST7	2	0.947	9.63	7.71
15	ST7	3	0.398	5.77	5.39
16	BAZ1B	1	-1.02	-4.21	2.63
17	BAZ1B	2	-1.6	-8.31	1.73
18	BAZ1B	3	3.84	30	15.8
19	NMNAT3	1	0.221	4.53	7.86
20	NMNAT3	2	3.84	30	16.7
21	NMNAT3	3	-1.07	-4.54	2.63
22	ABLIM1	1	-1.24	-5.72	1.31
23	ABLIM1	2	0.98	9.86	9.17
24	ABLIM1	3	1.22	11.5	10
25	KIF1B	1	-0.895	-3.33	5.03
26	KIF1B	2	1.2	11.4	7.98
27	KIF1B	3	0.704	7.92	6.58
28	PTPRC	1	-0.546	-0.876	4.51
29	PTPRC	2	-0.933	-3.6	3.22
30	PTPRC	3	-0.358	0.449	3.63
31	AICDA	1	-0.125	2.09	5.09
32	AICDA	2	-0.0481	2.63	6.74
33	AICDA	3	-0.0538	2.59	5.16
34	CACFD1	1	-0.94	-3.65	3.55
35	CACFD1	2	-0.725	-2.14	3.25
36	CACFD1	3	-0.432	-0.0749	3.15
37	ITGA2B	1	-0.737	-2.21	4.24
38	ITGA2B	2	-0.456	-0.243	4.11
39	ITGA2B	3	0.986	9.9	9.45
40	PCGF2	1	-0.909	-3.43	2.39
41	PCGF2	2	-0.604	-1.28	5.42
42	PCGF2	3	-0.264	1.11	3.8
43	DIRAS3	1	0.0571	3.37	6.07
44	DIRAS3	2	0.56	6.91	7.18
45	DIRAS3	3	-0.0439	2.66	6.2
46	CCL1	1	-1.01	-4.17	4.28
47	CCL1	2	2.52	20.7	11.6
48	CCL1	3	0.793	8.55	6.79
49	NANOS2	1	0.173	4.18	6.59
50	NANOS2	2	-0.557	-0.948	3.94
51	NANOS2	3	-0.602	-1.27	5.36
52	FAM111A	1	1.03	10.2	9.02
53	FAM111A	2	0.229	4.58	6.66
54	FAM111A	3	-0.406	0.108	2.73
55	ZMAT1	1	-0.78	-2.52	3.85
56	ZMAT1	2	-0.173	1.75	4.83
57	ZMAT1	3	0.532	6.71	8.22
58	ASAP1	1	0.565	6.94	9.1
59	ASAP1	2	0.549	6.83	6.77
60	ASAP1	3	-0.647	-1.59	3.19
61	ZNF567	1	-0.0332	2.73	4.03
62	ZNF567	2	0.595	7.16	5.65
63	ZNF567	3	-0.0721	2.46	4.39
64	FAM161A	1	-0.801	-2.67	3.22
65	FAM161A	2	-0.4	0.15	3.5
66	FAM161A	3	-0.126	2.08	3.04
67	IFITM2	1	-0.295	0.89	4.5
68	IFITM2	2	2.91	23.4	11.9
69	IFITM2	3	-0.895	-3.33	3.68

Already shown: 4 of the entries above.
no.	target	siRNA no.	G2 robust z-score	G2 cells, % of GMNN control	raw share of cells in G2 (%)
50	NANOS2	2	-0.557	-0.948	3.94
51	NANOS2	3	-0.602	-1.27	5.36
52	FAM111A	1	1.03	10.2	9.02
53	FAM111A	2	0.229	4.58	6.66
